Reference: patent publication US20160081309A1, “FRUCTOBACILLUS AS A PROBIOTIC FOR HONEYBEES” (Indiana University Research & Technology Corporation, priority 2014, published 2016)
At least one compound was matched to its structure with a doubt left.

Tested on: Fructobacillus sp.
Experiment: Antibiotic sensitivity test, soft agar overlay with antibiotic discs
Type: cell-based
Conditions: Fructobacillus soft MRS agar overlay; disc content 5-30 mcg as given per antibiotic
Experimental: Evolutionary analyses were conducted in MEGA6 using the 16S rRNA gene sequences and using a Maximum Likelihood method based on the General Time Reversible Model with a gamma distribution, invariable sites and 100 bootstrap replicates (Tamura et al. (2013) Mol Biol Evol, 30:2725-2729). For antibiotic sensitivity tests, overnight cultures of Fructobacillus sp. were mixed with soft MRS agar and overlayed onto MRS plates onto which an antibiotic impregnated disc had been placed. Diameters of zones of inhibition were measured around each antibiotic disc using a ruler. Antibiotics used were BBL Sensi-Disc tetracycline 30 mcg, ampicillin with sulbactam 20 mcg, rifampin 5 mcg, ciprofloxacin 5 mcg, and vancomycin 30 mcg.
Honey bees are commonly prophylactically treated with oxytetracycline for the prevention of foulbrood diseases caused by the bacteria Melissococcus plutonius and Paenibacillus larvae. […] The bacterial strain's resistance to antibiotics was determined, as treatment might alter the abundance of Fructobacillus in the hive. Using soft agar overlays, Fructobacillus cultures were exposed to five different antibiotics (tetracycline, ampicillin (with sulbactam), rifampicin, ciprofloxacin, and vancomycin), and the resulting zones of inhibition were measured (Table 3). […] These two antibiotics are commonly used in agriculture.

CN(C)[C@@H]1C(O)=C(C(N)=O)C(=O)[C@@]2(O)C(O)=C3C(=O)c4c(O)cccc4[C@@](C)(O)[C@H]3C[C@@H]12 [Tetracycline]
Interpretation (antibiotic sensitivity): Susceptible
